Compound in this assay: Nc1ncnc2c1ncn2[C@@H]1O[C@H](COP(=O)(O)OP(=O)(O)NP(=O)(O)O)[C@@H](O)[C@H]1O [adenylyl imidodiphosphate]
Kind of assay: NP40-soluble protein abundance relative to vehicle (solubility fold change) (ratio); higher = more soluble protein in presence of AMP-PNP. The essentials:
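In three independent experiments, Jurkat crude lysate made by Dounce homogenisation was treated for 10 min at room temperature and then 3 min at 37 °C with eight concentrations ranging from 0.1 to 10 mM. It was then solubilised with 0.8% NP40 plus benzonase for 60 min at 4 °C and ultracentrifuged. The supernatant was TMT-labelled for LC-MS/MS, and each value is the fold change against the detergent-processed vehicle for the same replicate, using vsn-normalised intensities.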

The chains behind the UniProt entries cited, without tags or fusion partners. Where a name states a change or a piece, a line headed by the entry shows the natural chain unless it says otherwise.
UniProt P17535: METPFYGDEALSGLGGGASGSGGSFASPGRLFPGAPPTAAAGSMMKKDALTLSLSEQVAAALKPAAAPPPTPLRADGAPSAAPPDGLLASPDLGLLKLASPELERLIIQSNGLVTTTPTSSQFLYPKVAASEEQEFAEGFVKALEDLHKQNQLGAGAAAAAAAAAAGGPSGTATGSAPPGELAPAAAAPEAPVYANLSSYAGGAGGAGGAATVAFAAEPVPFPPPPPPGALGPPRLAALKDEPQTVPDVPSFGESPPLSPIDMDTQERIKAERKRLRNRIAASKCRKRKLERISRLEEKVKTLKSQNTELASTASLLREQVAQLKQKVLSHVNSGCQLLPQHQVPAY
UniProt P27540, whole entry: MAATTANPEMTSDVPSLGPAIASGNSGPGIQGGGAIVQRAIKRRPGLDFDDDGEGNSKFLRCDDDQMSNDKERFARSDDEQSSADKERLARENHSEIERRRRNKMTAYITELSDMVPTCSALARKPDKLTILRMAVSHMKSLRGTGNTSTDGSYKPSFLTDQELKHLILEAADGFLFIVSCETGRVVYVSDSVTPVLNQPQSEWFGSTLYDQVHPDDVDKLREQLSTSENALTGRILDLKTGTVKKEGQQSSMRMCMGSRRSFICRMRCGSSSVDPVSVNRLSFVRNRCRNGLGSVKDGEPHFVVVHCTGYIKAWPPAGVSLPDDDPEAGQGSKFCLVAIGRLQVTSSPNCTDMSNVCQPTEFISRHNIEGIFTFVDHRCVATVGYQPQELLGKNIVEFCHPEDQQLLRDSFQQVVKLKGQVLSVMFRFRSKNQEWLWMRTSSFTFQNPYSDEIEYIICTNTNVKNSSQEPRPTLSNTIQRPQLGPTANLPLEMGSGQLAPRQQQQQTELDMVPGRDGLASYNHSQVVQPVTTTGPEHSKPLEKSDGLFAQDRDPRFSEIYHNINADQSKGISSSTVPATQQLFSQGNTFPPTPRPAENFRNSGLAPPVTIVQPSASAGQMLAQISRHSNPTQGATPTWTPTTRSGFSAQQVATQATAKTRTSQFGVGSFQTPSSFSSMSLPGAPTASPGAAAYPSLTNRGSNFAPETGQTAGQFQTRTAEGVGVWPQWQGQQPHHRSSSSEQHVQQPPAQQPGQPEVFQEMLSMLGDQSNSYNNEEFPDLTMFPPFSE
UniProt P28070, whole entry: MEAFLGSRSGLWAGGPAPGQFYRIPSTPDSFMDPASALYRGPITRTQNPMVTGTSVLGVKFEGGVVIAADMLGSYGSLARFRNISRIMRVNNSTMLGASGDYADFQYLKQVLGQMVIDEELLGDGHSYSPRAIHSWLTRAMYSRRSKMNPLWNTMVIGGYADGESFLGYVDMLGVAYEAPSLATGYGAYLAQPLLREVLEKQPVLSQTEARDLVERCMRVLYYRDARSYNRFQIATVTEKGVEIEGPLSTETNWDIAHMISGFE
UniProt P30041: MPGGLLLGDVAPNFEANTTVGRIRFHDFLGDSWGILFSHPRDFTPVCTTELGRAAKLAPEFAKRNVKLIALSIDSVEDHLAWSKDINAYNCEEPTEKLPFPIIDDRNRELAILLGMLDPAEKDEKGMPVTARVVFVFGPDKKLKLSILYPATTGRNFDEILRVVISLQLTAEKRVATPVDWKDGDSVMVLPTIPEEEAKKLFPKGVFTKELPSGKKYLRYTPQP
UniProt P28072: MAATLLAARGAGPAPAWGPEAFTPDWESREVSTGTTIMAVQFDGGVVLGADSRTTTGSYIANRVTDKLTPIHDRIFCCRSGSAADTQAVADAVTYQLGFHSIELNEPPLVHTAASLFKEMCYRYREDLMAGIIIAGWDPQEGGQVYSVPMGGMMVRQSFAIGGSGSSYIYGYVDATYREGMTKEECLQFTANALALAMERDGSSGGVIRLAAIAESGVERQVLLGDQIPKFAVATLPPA
UniProt P28482, whole entry: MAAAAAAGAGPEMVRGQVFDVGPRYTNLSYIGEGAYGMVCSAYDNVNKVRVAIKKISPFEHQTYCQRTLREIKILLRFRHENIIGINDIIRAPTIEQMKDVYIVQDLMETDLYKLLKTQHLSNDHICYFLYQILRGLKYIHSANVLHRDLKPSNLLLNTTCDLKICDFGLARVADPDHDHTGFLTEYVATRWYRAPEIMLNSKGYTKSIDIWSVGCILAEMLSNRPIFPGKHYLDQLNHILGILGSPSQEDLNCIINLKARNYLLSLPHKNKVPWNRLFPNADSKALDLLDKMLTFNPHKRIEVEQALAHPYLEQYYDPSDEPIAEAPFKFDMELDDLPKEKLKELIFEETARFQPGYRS
UniProt P35580, whole entry: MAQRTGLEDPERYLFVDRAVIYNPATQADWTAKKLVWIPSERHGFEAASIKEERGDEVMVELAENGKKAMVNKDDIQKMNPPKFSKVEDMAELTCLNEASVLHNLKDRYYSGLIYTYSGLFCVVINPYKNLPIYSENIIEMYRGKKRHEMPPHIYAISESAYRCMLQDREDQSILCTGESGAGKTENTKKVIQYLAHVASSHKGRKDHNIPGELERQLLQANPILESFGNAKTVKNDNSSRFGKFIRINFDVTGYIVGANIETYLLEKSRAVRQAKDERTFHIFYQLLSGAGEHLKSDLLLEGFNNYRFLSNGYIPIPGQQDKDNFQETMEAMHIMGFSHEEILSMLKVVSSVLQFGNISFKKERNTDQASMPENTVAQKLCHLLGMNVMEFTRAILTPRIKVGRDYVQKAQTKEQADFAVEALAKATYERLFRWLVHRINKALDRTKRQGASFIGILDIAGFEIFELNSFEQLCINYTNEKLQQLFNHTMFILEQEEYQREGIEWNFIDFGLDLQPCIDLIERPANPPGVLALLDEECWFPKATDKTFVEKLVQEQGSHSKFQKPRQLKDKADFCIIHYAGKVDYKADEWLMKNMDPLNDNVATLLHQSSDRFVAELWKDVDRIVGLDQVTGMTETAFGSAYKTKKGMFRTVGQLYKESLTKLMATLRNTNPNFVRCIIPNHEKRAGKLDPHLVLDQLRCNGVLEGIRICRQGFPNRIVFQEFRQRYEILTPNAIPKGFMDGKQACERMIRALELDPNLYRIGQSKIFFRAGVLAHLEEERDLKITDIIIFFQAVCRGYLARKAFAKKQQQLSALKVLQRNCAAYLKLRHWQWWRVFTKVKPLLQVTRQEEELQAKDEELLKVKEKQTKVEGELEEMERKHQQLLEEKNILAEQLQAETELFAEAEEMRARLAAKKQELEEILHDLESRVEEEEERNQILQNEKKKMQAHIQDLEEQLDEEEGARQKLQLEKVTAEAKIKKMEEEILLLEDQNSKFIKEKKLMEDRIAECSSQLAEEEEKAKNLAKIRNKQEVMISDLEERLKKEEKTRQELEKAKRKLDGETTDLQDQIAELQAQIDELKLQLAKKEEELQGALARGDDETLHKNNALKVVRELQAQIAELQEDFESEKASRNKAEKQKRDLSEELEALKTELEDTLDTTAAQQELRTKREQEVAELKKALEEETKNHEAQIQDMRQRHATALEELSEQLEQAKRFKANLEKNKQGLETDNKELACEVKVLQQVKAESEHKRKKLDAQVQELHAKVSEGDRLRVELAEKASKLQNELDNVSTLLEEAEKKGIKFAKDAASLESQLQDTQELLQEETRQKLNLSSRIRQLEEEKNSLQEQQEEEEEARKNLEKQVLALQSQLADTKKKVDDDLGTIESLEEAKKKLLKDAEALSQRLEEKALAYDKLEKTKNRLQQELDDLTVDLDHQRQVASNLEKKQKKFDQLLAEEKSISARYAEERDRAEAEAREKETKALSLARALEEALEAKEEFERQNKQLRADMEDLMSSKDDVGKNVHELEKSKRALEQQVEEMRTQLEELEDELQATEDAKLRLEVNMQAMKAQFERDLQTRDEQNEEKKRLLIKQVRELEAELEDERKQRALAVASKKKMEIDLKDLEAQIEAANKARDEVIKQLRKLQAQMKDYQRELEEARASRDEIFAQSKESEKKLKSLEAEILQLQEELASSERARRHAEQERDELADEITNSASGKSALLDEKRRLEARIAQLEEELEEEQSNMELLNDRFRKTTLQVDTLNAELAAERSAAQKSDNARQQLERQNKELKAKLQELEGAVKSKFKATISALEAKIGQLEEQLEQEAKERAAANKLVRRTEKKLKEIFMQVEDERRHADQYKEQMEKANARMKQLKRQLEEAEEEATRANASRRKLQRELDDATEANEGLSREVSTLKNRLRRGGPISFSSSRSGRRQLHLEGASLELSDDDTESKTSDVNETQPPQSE
UniProt P25686: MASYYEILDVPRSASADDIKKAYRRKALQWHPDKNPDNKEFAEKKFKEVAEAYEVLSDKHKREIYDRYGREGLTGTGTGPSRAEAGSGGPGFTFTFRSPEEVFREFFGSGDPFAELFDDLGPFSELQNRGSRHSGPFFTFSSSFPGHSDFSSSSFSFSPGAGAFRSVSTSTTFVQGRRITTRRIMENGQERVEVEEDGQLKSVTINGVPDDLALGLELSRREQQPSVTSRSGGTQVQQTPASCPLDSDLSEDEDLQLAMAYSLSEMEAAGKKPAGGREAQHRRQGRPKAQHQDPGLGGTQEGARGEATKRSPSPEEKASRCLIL
UniProt P26196: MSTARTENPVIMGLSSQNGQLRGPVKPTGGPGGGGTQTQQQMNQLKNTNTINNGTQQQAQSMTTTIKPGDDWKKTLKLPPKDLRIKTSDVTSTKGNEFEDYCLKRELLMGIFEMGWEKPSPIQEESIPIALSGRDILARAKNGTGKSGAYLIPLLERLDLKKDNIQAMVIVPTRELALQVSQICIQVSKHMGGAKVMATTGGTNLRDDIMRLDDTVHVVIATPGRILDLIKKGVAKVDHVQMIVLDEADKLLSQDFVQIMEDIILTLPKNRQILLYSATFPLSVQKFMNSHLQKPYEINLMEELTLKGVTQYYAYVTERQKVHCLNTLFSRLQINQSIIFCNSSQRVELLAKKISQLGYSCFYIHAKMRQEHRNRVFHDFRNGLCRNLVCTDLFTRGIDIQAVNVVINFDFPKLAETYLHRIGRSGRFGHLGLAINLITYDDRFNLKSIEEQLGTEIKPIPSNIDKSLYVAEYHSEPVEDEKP
UniProt P23743: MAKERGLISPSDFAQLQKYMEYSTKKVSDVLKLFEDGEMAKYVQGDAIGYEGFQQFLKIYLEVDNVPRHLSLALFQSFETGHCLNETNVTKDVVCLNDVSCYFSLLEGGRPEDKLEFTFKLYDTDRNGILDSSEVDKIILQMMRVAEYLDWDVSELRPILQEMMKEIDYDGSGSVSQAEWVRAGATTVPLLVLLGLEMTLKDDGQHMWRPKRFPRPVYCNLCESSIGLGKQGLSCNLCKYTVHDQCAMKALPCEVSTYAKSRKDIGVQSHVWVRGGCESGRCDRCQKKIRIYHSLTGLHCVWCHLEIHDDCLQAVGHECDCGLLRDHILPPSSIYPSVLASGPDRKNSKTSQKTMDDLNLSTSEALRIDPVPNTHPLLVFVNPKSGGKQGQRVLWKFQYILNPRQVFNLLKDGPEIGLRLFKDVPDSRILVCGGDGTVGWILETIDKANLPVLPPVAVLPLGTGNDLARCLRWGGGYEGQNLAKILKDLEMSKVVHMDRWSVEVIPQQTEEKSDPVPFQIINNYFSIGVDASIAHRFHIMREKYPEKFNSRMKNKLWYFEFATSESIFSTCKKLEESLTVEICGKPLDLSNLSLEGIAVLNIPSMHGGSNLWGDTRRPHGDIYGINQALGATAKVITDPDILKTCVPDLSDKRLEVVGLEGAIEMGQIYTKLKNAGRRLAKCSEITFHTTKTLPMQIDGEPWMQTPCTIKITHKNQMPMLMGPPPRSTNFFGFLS
UniProt P37198: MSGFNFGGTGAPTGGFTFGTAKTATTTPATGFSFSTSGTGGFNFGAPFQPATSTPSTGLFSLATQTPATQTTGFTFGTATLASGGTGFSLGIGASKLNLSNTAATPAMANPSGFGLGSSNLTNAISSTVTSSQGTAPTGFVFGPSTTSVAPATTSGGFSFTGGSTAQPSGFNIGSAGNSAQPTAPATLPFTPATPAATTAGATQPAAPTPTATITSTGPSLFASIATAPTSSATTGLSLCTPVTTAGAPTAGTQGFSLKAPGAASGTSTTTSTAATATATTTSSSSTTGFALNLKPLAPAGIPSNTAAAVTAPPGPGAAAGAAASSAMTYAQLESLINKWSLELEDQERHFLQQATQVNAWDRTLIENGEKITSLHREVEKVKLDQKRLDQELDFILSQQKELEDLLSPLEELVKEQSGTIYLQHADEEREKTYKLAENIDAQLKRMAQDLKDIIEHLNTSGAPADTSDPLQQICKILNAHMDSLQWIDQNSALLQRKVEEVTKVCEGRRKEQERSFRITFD
UniProt P20042, whole entry: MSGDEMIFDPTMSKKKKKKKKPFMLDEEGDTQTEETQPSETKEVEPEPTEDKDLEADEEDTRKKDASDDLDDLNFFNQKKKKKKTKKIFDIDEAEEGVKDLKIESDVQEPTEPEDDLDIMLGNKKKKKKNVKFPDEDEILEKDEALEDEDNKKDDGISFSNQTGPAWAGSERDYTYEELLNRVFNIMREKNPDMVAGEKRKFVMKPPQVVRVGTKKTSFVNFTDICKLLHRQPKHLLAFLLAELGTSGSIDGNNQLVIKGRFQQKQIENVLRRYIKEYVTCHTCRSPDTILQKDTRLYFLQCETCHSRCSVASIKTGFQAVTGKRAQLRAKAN

± gives the standard deviation of the averaged measurements. The entries are a selection whose mix differs from that of the whole data set. Most values lie at the level of the controls, where differences are scatter.

For the target ABCD3 (UniProt P28288), the NP40-soluble protein abundance runs as follows: (concentration: 0.1mM) 1.04 ± 0.066; (concentration: 0.5mM) 0.993 ± 0.13.
As to PTPN1 (UniProt P18031), the NP40-soluble protein abundance was found to be 0.978 ± 0.029 (concentration: 0.1mM) and 0.987 ± 0.029 (concentration: 0.5mM).
UniProt P35244 and related entries: the NP40-soluble protein abundance reads like this: (concentration: 0.1mM) 0.971 ± 0.029; (concentration: 0.5mM) 1.02 ± 0.013.
The matching figures for UniProt P17980 and related entries: 0.995 ± 0.027 and 0.947 ± 0.046.
The corresponding values for UniProt P34897 and related entries are 1.03 ± 0.016 and 1.01 ± 0.016.
The corresponding values for UniProt P19525 and related entries are 1.05 ± 0.041 and 1.06 ± 0.025.
Take PPIB (UniProt P23284): the NP40-soluble protein abundance runs as follows: (concentration: 0.1mM) 0.977 ± 0.024; (concentration: 0.5mM) 1.02 ± 0.028.
The corresponding values for JUND (UniProt P17535) are 0.972 ± 0.052 and 0.982 ± 0.031.
The corresponding values for GDI1 (UniProt P31150) are 1.02 ± 0.02 and 0.987 ± 0.07.
Regarding RPL12 (UniProt P30050), the NP40-soluble protein abundance is, setting by setting: (concentration: 0.1mM) 1.01 ± 0.021; (concentration: 0.5mM) 1.03 ± 0.022.
Regarding UniProt P27540 and related entries, the NP40-soluble protein abundance (concentration: 0.1mM) was 0.977 ± 0.022 and the NP40-soluble protein abundance (concentration: 0.5mM) amounted to 1.03 ± 0.02.
The matching figures for CAPG (UniProt P40121): 0.981 ± 0.019 and 1.01 ± 0.039.
The matching figures for EEF1G (UniProt P26641): 0.9956 ± 0.0053 and 0.999 ± 0.043.
The corresponding values for UniProt P35611 and related entries are 0.996 ± 0.028 and 0.995 ± 0.038.
Take ABCC1 (UniProt P33527): the NP40-soluble protein abundance is, setting by setting: (concentration: 0.1mM) 0.997 ± 0.012; (concentration: 0.5mM) 0.99 ± 0.039.
The corresponding values for PSMB4 (UniProt P28070) are 0.989 ± 0.018 and 1.04 ± 0.021.
The corresponding values for PRDX6 (UniProt P30041) are 1 ± 0.022 and 0.969 ± 0.074.
The matching figures for PSMB6 (UniProt P28072): 0.978 ± 0.0098 and 0.976 ± 0.042.
As for COIL (UniProt P38432), the NP40-soluble protein abundance (concentration: 0.1mM) was determined as 0.982 ± 0.02 and the NP40-soluble protein abundance (concentration: 0.5mM) turned out to be 1.001 ± 0.0087.
Take UniProt P28482: the NP40-soluble protein abundance (concentration: 0.1mM) came out at 1.01 ± 0.022 and the NP40-soluble protein abundance (concentration: 0.5mM) is 1.02 ± 0.052.
For the target MYH10 (UniProt P35580), the NP40-soluble protein abundance is, setting by setting: (concentration: 0.1mM) 1.07 ± 0.057; (concentration: 0.5mM) 1.13 ± 0.14.
The corresponding values for PRKAR2B (UniProt P31323) are 1.03 ± 0.054 and 1.03 ± 0.028.
As to GM2A (UniProt P17900), the NP40-soluble protein abundance runs as follows: (concentration: 0.1mM) 1 ± 0.025; (concentration: 0.5mM) 0.991 ± 0.018.
The corresponding values for GNL1 (UniProt P36915) are 1.02 ± 0.05 and 1.02 ± 0.061.
The corresponding values for RRM1 (UniProt P23921) are 1.04 ± 0.046 and 1.02 ± 0.11.
The corresponding values for CPT2 (UniProt P23786) are 1.01 ± 0.031 and 0.962 ± 0.058.
UniProt P17706 and related entries: the NP40-soluble protein abundance was found to be 0.973 ± 0.048 (concentration: 0.1mM) and 0.971 ± 0.018 (concentration: 0.5mM).
The matching figures for DNAJB2 (UniProt P25686): 0.964 ± 0.02 and 0.955 ± 0.019.
The corresponding values for GNA15 (UniProt P30679) are 0.945 ± 0.045 and 0.976 ± 0.015.
The matching figures for UniProt P20073 and related entries: 1.01 ± 0.038 and 0.99 ± 0.031.
Regarding GALNS (UniProt P34059), the NP40-soluble protein abundance by setting is: (concentration: 0.1mM) 0.948 ± 0.033; (concentration: 0.5mM) 0.974 ± 0.023.
In the case of UniProt P25445 and related entries, the NP40-soluble protein abundance (concentration: 0.1mM) worked out at 0.941 ± 0.029 and the NP40-soluble protein abundance (concentration: 0.5mM) worked out at 0.998 ± 0.082.
The corresponding values for TUBG1 (UniProt P23258) are 1.04 ± 0.017 and 1.05 ± 0.037.
The matching figures for UniProt P22694 and related entries: 1 ± 0.028 and 0.987 ± 0.044.
The matching figures for UniProt P27987 and related entries: 0.979 ± 0.046 and 0.977 ± 0.018.
On to UniProt P29016, for which the NP40-soluble protein abundance runs as follows: (concentration: 0.1mM) 1.02 ± 0.035; (concentration: 0.5mM) 0.998 ± 0.056.
The matching figures for UniProt P36639 and related entries: 0.986 ± 0.046 and 0.995 ± 0.047.
The corresponding values for UniProt P30622 and related entries are 0.982 ± 0.036 and 0.979 ± 0.045.
The matching figures for DDX6 (UniProt P26196): 1.01 ± 0.0011 and 1.01 ± 0.029.
HIBADH (UniProt P31937): the NP40-soluble protein abundance (concentration: 0.1mM) amounted to 0.99 ± 0.023 and the NP40-soluble protein abundance (concentration: 0.5mM) came to 1.02 ± 0.04.
On to YY1 (UniProt P25490), for which the NP40-soluble protein abundance by setting is: (concentration: 0.1mM) 1.009 ± 0.0032; (concentration: 0.5mM) 1.05 ± 0.064.
The matching figures for ME2 (UniProt P23368): 1.03 ± 0.047 and 0.979 ± 0.11.
The corresponding values for PSMB1 (UniProt P20618) are 1.01 ± 0.03 and 0.993 ± 0.012.
The corresponding values for KIF5B (UniProt P33176) are 0.991 ± 0.015 and 1.03 ± 0.048.
As for EIF4A3 (UniProt P38919), the NP40-soluble protein abundance runs as follows: (concentration: 0.1mM) 1.06 ± 0.037; (concentration: 0.5mM) 1.03 ± 0.16.
For the target SDHA (UniProt P31040), the NP40-soluble protein abundance was found to be 1.002 ± 0.0037 (concentration: 0.1mM) and 0.969 ± 0.024 (concentration: 0.5mM).
The corresponding values for DGKA (UniProt P23743) are 1.05 ± 0.025 and 1.03 ± 0.1.
The corresponding values for AGL (UniProt P35573) are 1.07 ± 0.053 and 1.01 ± 0.086.
The matching figures for TAGLN2 (UniProt P37802): 0.972 ± 0.082 and 0.953 ± 0.039.
On to UniProt P39687 and related entries, for which the NP40-soluble protein abundance (concentration: 0.1mM) was 0.964 ± 0.012 and the NP40-soluble protein abundance (concentration: 0.5mM) was found to be 0.996 ± 0.062.
The corresponding values for CMPK1 (UniProt P30085) are 0.923 ± 0.063 and 1.02 ± 0.035.
For UniProt P19784, the NP40-soluble protein abundance reads like this: (concentration: 0.1mM) 1.06 ± 0.039; (concentration: 0.5mM) 1.01 ± 0.13.
The matching figures for UniProt P29401 and related entries: 0.9774 ± 0.0048 and 1.01 ± 0.018.
The matching figures for POLR2E (UniProt P19388): 1.04 ± 0.031 and 1 ± 0.041.
Turning to PPP2R1A (UniProt P30153), the NP40-soluble protein abundance is, setting by setting: (concentration: 0.1mM) 1.01 ± 0.032; (concentration: 0.5mM) 0.988 ± 0.011.
The matching figures for NUP62 (UniProt P37198): 0.979 ± 0.01 and 1.01 ± 0.027.
The corresponding values for UniProt P32189 and related entries are 1.014 ± 0.008 and 0.994 ± 0.054.
With EIF2S2 (UniProt P20042), the NP40-soluble protein abundance (concentration: 0.1mM) was found to be 0.979 ± 0.022 and the NP40-soluble protein abundance (concentration: 0.5mM) came to 1.04 ± 0.039.
The matching figures for ATP6V1C1 (UniProt P21283): 1.01 ± 0.021 and 0.975 ± 0.021.
The corresponding values for MCM7 (UniProt P33993) are 1.02 ± 0.012 and 0.976 ± 0.037.

These data come from the supplement of paper PMC6411743.
